Library compounds against nucleic acid targets

Targets (5′ to 3′):
SAM-II: SAM-II riboswitch RNA pseudoknot, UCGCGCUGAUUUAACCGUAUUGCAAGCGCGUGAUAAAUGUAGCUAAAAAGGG. About 200 hits among about 21,000 compounds.
TPP: TPP riboswitch RNA three-way junction, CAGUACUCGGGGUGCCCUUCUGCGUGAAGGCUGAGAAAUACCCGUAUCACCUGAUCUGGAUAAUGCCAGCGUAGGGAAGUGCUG. About 160 hits among about 24,000 compounds.
PreQ1: PreQ1 riboswitch RNA pseudoknot, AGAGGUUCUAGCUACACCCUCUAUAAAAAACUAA. From B. subtilis. About 170 hits among about 24,000 compounds.

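Compounds were printed on reactive glass slides in duplicate spots, a dye-labelled oligonucleotide was laid over them, and the fluorescence left after washing was read. The data file lists only calls. An earlier report of the laboratory on the PreQ1, TPP and SAM-II riboswitches (doi:10.1038/s41467-019-09493-3) used 1 µM RNA for 2 h and required a mean Z-score above 3 (spot signal-to-noise against the whole library), a score well above that on a control array, and duplicate spots agreeing (coefficient of variation under 100); it then also set aside compounds that hit other targets, which this list keeps. The cut-offs behind this list may differ. These are primary screening calls, not affinities; a compound without a hit may have attached poorly or may still bind in solution.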 A compound is marked Y if it was called a hit and N if it was screened but was not. This is an unselected part of the compounds tested. A dash means that no call is listed here.

| # | compound | SAM-II | TPP | PreQ1 |
|---|---|---|---|---|
| 1 | `COc1ccc(CCNCc2ccc(-c3cccc(C(=O)O)c3C)o2)cc1OC` | N | N | N |
| 2 | `Cc1cc(Nc2ncc3c(n2)N(C)C(=O)N(c2cc(NC(=O)c4cccc(C(F)(F)F)c4)ccc2C)C3)n(C)n1` | N | N | N |
| 3 | `CC1Cc2cc(-n3ccnc3-c3ccccc3OCCO)ccc2O1` (stereo unspecified) | N | N | N |
| 4 | `Cc1ccccc1NC(=O)Cn1nnc(C(=O)Nc2ccccc2)c1N` | N | N | N |
| 5 | `COCCNc1oc(-c2ccc(S(=O)(=O)N3CCCCC3)cc2)nc1C#N` | - | N | N |
| 6 | `CCCCN(CCCC)S(=O)(=O)c1cc(Br)cnc1N` | - | N | N |
| 7 | `CCCNCc1ccc2c(c1)n(C)c(=O)n2C` | - | N | N |
| 8 | `CNc1oc(-c2ccc(Cl)cc2)nc1S(=O)(=O)c1ccc(F)cc1` | - | N | N |
| 9 | `O=C(c1ccc2cccc(Cl)c2n1)N1CCOCC(CO)C1` (stereo unspecified) | N | N | N |
| 10 | `C=CCN1C(=O)C2(C(C(=O)OCC)=C(C)OC(N)=C2C(=O)OC)c2ccccc21` (stereo unspecified) | N | N | N |
| 11 | `C=CCNc1nc2c(c(=O)[nH]c(=O)n2C)n1CC(O)CO` (stereo unspecified) | N | N | N |
| 12 | `Nc1nc(NCCO)cc(N2CCC(n3c(=O)[nH]c4ccccc43)CC2)n1` | N | N | Y |
| 13 | `Cc1ccnc(N2CCC(NCCc3ccc(S(N)(=O)=O)cc3)CC2)n1` | N | N | N |
| 14 | `CCn1c(N)c(C(=O)N2CCCCC2)sc1=S` | N | N | N |
| 15 | `Cc1cnc(N)nc1NC(CN1CCCC1)c1ccccc1` (stereo unspecified) | N | N | N |
| 16 | `OCCCc1nc2ccccc2n1CCCCOc1ccccc1` | N | N | N |
| 17 | `O=C([C@@H]1CC(F)(F)CN1)N1CCN(Cc2cccc(F)c2)CC1` | N | N | N |
| 18 | `NCCn1cc(C(=O)NCCOc2cccc3cccnc23)nn1` | N | N | N |
| 19 | `CO[C@H]1CN(C(=O)Cc2ccc(-n3nnnc3C)cc2)CC[C@H]1N` | N | N | N |
| 20 | `Cc1ccc(S(=O)(=O)[C@H]2CS(=O)(=O)C[C@@H]2NCc2ccccc2Cl)cc1` | - | N | N |
| 21 | `Cc1nc(Nc2ncc(C(=O)Nc3c(C)cccc3Cl)s2)cc(N2CCN(CCO)CC2)n1` | N | N | N |
| 22 | `N#CC1=C(N)OC2=C(C(=O)CCC2)C1c1ccc(Br)cc1` (stereo unspecified) | N | N | N |
| 23 | `CC(C)(C)N1CC(C(=O)N(CCO)Cc2nccs2)CC1=O` (stereo unspecified) | N | N | N |
| 24 | `CSc1nccc(N2CCC(NCCN3CCNC3=O)CC2)n1` | N | N | N |
| 25 | `Cc1ccc2nc(N3CCCC(O)C3)c(CN(C)Cc3ccncn3)cc2c1` (stereo unspecified) | N | N | N |
| 26 | `Cc1ccc(Nc2c(-c3ccc(O)cc3)nc3cnccn23)cc1Cl` | - | N | N |
| 27 | `Cc1ccc(NC(=O)Cn2nnc(C(=O)Nc3ccccc3F)c2N)cc1` | N | N | N |
| 28 | `CC(=O)N1CCN(C(=O)c2nc3ccccc3o2)CC(O)C1` (stereo unspecified) | N | N | N |
| 29 | `CC(C)CNc1cc(C(C)C)nc2nc(-c3cccnc3)nn12` | - | N | N |
| 30 | `O=C(c1csc(Cc2ccccc2)n1)N1CC(O)CO1` (stereo unspecified) | N | N | N |
| 31 | `C#CCN1C(=O)C2(C(C#N)=C(N)N(c3ccc(F)c(Cl)c3)C3=C2C(=O)OC3)c2ccccc21` (stereo unspecified) | N | N | N |
| 32 | `CCCCCN[C@H]1CS(=O)(=O)C[C@@H]1S(=O)(=O)c1ccc(F)c(C)c1` | - | N | N |
| 33 | `Cc1ccccc1Nc1c(-c2ccco2)nc2c(C)cccn12` | N | N | N |
| 34 | `Cc1ccc(C)c(OCC(=O)N(CCCCO)Cc2ccccc2)c1C` | N | N | N |
| 35 | `CCOc1ccc(CNC2=NS(=O)(=O)C(c3ccc(OC)cc3)=C2C)cc1` | - | N | N |
| 36 | `Cc1nc2nc(CN)nn2c(C)c1CCC(=O)Nc1ccccc1F` | - | N | N |
| 37 | `NCc1nc(-c2ccccc2)no1` | N | N | N |
| 38 | `Cc1ccc(NC(=O)Cn2nnc(C(=O)Nc3ccccc3F)c2N)c(C)c1` | N | N | N |
| 39 | `CC(=O)CC(C)(C)N` | N | N | N |
| 40 | `CCCc1cc(NC(C)C)n2nc(C)c(-c3ccccc3)c2n1` | - | N | N |
| 41 | `Cn1c(=O)c2c(c3ccccc31)OC(N)=C(C#N)C2c1cccc2ccccc12` (stereo unspecified) | N | N | N |
| 42 | `Cc1ccc(-c2cnc3c(-c4ccccc4)cnn3c2N)cc1` | N | N | N |
| 43 | `Cc1cc(C)c2c(n1)nn1c(NCc3cccnc3)cc(C)nc21` | - | N | N |
| 44 | `CCOC(=O)c1cnc(NCc2ccccc2)nc1C` | N | N | N |
| 45 | `CC(C)CCC1(CCNCc2ccccc2)CCOC(C)(C)C1` (stereo unspecified) | - | N | N |
| 46 | `O=S(=O)(c1cccc2cccnc12)N(CCO)CCO` | N | N | N |
| 47 | `Cc1cc(NC(C)C)n2nc(C)c(-c3ccc(F)cc3)c2n1` | - | N | N |
| 48 | `O[C@@H](c1cc(-c2ccc(C(F)(F)F)cc2)nc(C(F)(F)F)c1)[C@H]1CCCCN1` | N | N | N |
| 49 | `N#Cc1sc2nc(-c3ccncc3)ccc2c1N` | N | N | N |
| 50 | `O=C(C1CCOc2ccccc2C1)N1CCOc2ccc(CO)cc2C1` (stereo unspecified) | N | N | N |
| 51 | `COc1cccc2c1CCCC2CCCN1CCN(C2CCCCC2)CC1` (stereo unspecified) | N | N | N |
| 52 | `COc1cc(C)sc1C(=O)N1[C@H]2CCNC[C@@H]1CC2` | N | N | N |
| 53 | `COc1cc(CN2CCC(N)CC2)cc(OC)c1OC` | N | N | N |
| 54 | `COc1ccc(N2CC(=O)C(c3nc(C)c(C)s3)=C2N)cc1Cl` | - | N | N |
| 55 | `COc1ccc(C2C(C#N)=C(N)Oc3c2oc(CO)cc3=O)cc1` (stereo unspecified) | N | N | N |
| 56 | `O=C(O)c1ccccc1C(=O)Nc1ccc(-c2ccccc2)cc1` | N | N | N |
| 57 | `CNc1ncccc1-c1nc(-c2cccc(C)c2)no1` | - | N | N |
| 58 | `OCCc1cnn(-c2ccc(CN3CCCC3)cc2)c1` | N | N | N |
| 59 | `Nc1cccc(Cl)c1N1CCCCC1` | N | N | N |
| 60 | `Cc1ccc(C(C)(O)c2nc3ccccc3s2)c(C)c1` (stereo unspecified) | N | N | N |
| 61 | `Cc1ccsc1[C@@H]1CCN(C(=O)c2ccncc2Cl)C[C@H]1O` | N | N | N |
| 62 | `Cc1ccc(-c2cc(C(F)F)nc(NCc3ccco3)n2)cc1` | N | N | N |
| 63 | `COc1ccc(NC2CC(=O)N(c3ccc(N4CCOCC4)cc3)C2=O)cc1` (stereo unspecified) | N | N | N |
| 64 | `OC(CN1CCN(c2ccc(Cl)cc2)CC1)c1ccc2c(c1)CCN2` (stereo unspecified) | N | N | N |
| 65 | `CSc1cnc(Nc2nc(-c3ccc(Br)cc3)cs2)nc1` | - | N | N |
| 66 | `Cc1c(N)cccc1C(=O)Nc1nccs1` | N | N | N |
| 67 | `Cc1nc(N[C@@H](CO)Cc2ccccc2)c2cnn(C)c2n1` | N | N | N |
| 68 | `COc1ccc(-c2ccc(C(=O)NCc3cc4n(n3)CCNC4)c(=O)[nH]2)cc1` | N | N | N |
| 69 | `CCCCc1nc2sc3c(NCCO)ncnc3c2c2c1COC(C)(C)C2` | N | N | N |

4 of the entries, repeated:

compound,SAM-II,TPP,PreQ1
Cc1nc2nc(CN)nn2c(C)c1CCC(=O)Nc1ccccc1F,-,N,N
C=CCN1C(=O)C2(C(C(=O)OCC)=C(C)OC(N)=C2C(=O)OC)c2ccccc21 (stereo unspecified),N,N,N
COc1cc(CN2CCC(N)CC2)cc(OC)c1OC,N,N,N
Cc1ccccc1NC(=O)Cn1nnc(C(=O)Nc2ccccc2)c1N,N,N,N

Source: the ROBIN nucleic acid binder screens (doi:10.1002/anie.202211358).